Here are results for two molecules from publication PMC10855387.

Amino acid sequences for entries named in this document (tags omitted).
UniProt O95751: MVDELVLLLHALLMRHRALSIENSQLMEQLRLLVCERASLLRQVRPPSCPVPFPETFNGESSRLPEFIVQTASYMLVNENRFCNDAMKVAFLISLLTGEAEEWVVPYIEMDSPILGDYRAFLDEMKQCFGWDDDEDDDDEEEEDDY
UniProt Q96CW1: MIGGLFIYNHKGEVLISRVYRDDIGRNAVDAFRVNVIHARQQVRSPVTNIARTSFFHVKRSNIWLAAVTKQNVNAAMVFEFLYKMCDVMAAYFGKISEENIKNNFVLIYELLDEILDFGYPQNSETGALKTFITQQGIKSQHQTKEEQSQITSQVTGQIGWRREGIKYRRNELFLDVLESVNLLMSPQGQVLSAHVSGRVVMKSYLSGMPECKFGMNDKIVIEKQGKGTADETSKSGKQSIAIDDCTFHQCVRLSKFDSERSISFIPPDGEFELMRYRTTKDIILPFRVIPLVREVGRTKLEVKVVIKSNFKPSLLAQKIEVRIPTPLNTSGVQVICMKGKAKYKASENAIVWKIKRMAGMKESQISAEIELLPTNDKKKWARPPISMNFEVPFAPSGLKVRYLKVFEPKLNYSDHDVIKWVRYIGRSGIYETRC

This experiment addresses Leucine zipper downregulated in cancer-1 (LDOC1) (human (endogenous in A549 and PC9)) (UniProt O95751). In words: co-IP; endogenous proteins; A549 and PC9 cells serum-starved overnight, then EGF (10 nM) for 30 min; lysates in Pierce IP Lysis Buffer incubated with antibodies against LDOC1, AP1M1 or AP2M1 at 4 °C overnight, protein A-magnetic beads; Western blot. For orientation: A western blot detects proteins with antibodies after separation by electrophoresis.

These are yes or no findings as the source states them, for the method shown. In cells and extracts the contact can be indirect. Some entries that bind do so weakly or less than the wild type.

Regarding “AP-2 complex medium-chain μ2 (AP2M1) (from UniProt Q96CW1 1-435)”, the binding entry is listed as “binds”.

B1: AP-1 complex medium-chain μ1A (AP1M1) (protein, UniProt Q9BXS5 1-423)
chain: MSASAVYVLDLKGKVLICRNYRGDVDMSEVEHFMPILMEKEEEGMLSPILAHGGVRFMWIKHNNLYLVATSKKNACVSLVFSFLYKVVQVFSEYFKELEEESIRDNFVIIYELLDELMDFGYPQTTDSKILQEYITQEGHKLETGAPRPPATVTNAVSWRSEGIKYRKNEVFLDVIESVNLLVSANGNVLRSEIVGSIKMRVFLSGMPELRLGLNDKVLFDNTGRGKSKSVELEDVKFHQCVRLSRFENDRTISFIPPDGEFELMSYRLNTHVKPLIWIESVIEKHSHSRIEYMIKAKSQFKRRSTANNVEIHIPVPNDADSPKFKTTVGSVKWVPENSEIVWSIKSFPGGKEYLMRAHFGLPSVEAEDKEGKPPISVKFEIPYFTTSGIQVRYLKIIEKSGYQALPWVRYITQNGDYQLRTQ
In the case of B1, the binding entry is “binds”.
